Test results from the supplement of paper PMC8612539.
Values after ≈ are worked out from the molar mass of the structure shown. The source gives many values for each of these; only a part stands here.

Tested on: Escherichia coli
Assay: minimum inhibitory concentration (MIC)
Experimental: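 Broth microdilution MIC (Sensititre BOPO7F bovine plate, CLSI methods) of 19 antimicrobials against field isolates of P. multocida, M. haemolytica, H. somni (deep nasopharyngeal swabs) and E. coli, Enterococcus spp. (rectal swabs) from weaned dairy heifers. Incubation 16-24 h at 35 C. MIC is the lowest concentration preventing visible growth. Values with <= or > lie at the tested range limits. Trimethoprim-sulfamethoxazole is given as the trimethoprim component of a 1:19 mixture.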

CC[C@H]1OC(=O)C[C@@H](O)[C@H](C)[C@@H](O[C@@H]2O[C@H](C)[C@@H](O)[C@H](N(C)C)[C@H]2O)[C@@H](CCN2CCCCC2)C[C@@H](C)C(=O)/C=C/C(C)=C/[C@@H]1CN1CCCCC1 [Tildipirosin]
Settings | minimum inhibitory concentration [µg/mL]
isolate (source animal id): 1 | 8 (≈ 10.9 µM)
isolate (source animal id): 2 | 4 (≈ 5.45 µM)
isolate (source animal id): 3 | 4 (≈ 5.45 µM)
isolate (source animal id): 4 | 8 (≈ 10.9 µM)
isolate (source animal id): 5 | 8 (≈ 10.9 µM)
isolate (source animal id): 6 | 4 (≈ 5.45 µM)
isolate (source animal id): 7 | 4 (≈ 5.45 µM)
isolate (source animal id): 17 | 4 (≈ 5.45 µM)
isolate (source animal id): 18 | 8 (≈ 10.9 µM)
isolate (source animal id): 19 | 4 (≈ 5.45 µM)
isolate (source animal id): 20 | 4 (≈ 5.45 µM)
isolate (source animal id): 21 | 8 (≈ 10.9 µM)
isolate (source animal id): 22 | 4 (≈ 5.45 µM)
isolate (source animal id): 23 | 8 (≈ 10.9 µM)
isolate (source animal id): 24 | 4 (≈ 5.45 µM)
isolate (source animal id): 25 | 8 (≈ 10.9 µM)
isolate (source animal id): 26 | 8 (≈ 10.9 µM)
isolate (source animal id): 27 | 4 (≈ 5.45 µM)
isolate (source animal id): 28 | 4 (≈ 5.45 µM)
isolate (source animal id): 29 | 4 (≈ 5.45 µM)
isolate (source animal id): 30 | 4 (≈ 5.45 µM)
isolate (source animal id): 31 | 4 (≈ 5.45 µM)
isolate (source animal id): 32 | 2 (≈ 2.72 µM)
isolate (source animal id): 33 | 4 (≈ 5.45 µM)
isolate (source animal id): 34 | 2 (≈ 2.72 µM)
isolate (source animal id): 35 | 4 (≈ 5.45 µM)
isolate (source animal id): 36 | 4 (≈ 5.45 µM)
isolate (source animal id): 37 | 2 (≈ 2.72 µM)
isolate (source animal id): 38 | 8 (≈ 10.9 µM)
isolate (source animal id): 39 | 4 (≈ 5.45 µM)
isolate (source animal id): 40 | 2 (≈ 2.72 µM)
isolate (source animal id): 41 | 4 (≈ 5.45 µM)
isolate (source animal id): 42 | 4 (≈ 5.45 µM)
isolate (source animal id): 43 | 4 (≈ 5.45 µM)
isolate (source animal id): 44 | 4 (≈ 5.45 µM)
isolate (source animal id): 45 | 4 (≈ 5.45 µM)
isolate (source animal id): 46 | 2 (≈ 2.72 µM)
isolate (source animal id): 47 | 4 (≈ 5.45 µM)
isolate (source animal id): 48 | 4 (≈ 5.45 µM)
isolate (source animal id): 49 | 4 (≈ 5.45 µM)
isolate (source animal id): 50 | 2 (≈ 2.72 µM)
isolate (source animal id): 51 | 8 (≈ 10.9 µM)
isolate (source animal id): 52 | 4 (≈ 5.45 µM)
isolate (source animal id): 53 | 4 (≈ 5.45 µM)
isolate (source animal id): 54 | 4 (≈ 5.45 µM)
isolate (source animal id): 55 | 4 (≈ 5.45 µM)
isolate (source animal id): 56 | 4 (≈ 5.45 µM)
isolate (source animal id): 57 | 8 (≈ 10.9 µM)
isolate (source animal id): 58 | 8 (≈ 10.9 µM)
isolate (source animal id): 59 | 8 (≈ 10.9 µM)
isolate (source animal id): 60 | 4 (≈ 5.45 µM)
isolate (source animal id): 61 | 4 (≈ 5.45 µM)
isolate (source animal id): 62 | 4 (≈ 5.45 µM)
isolate (source animal id): 63 | 4 (≈ 5.45 µM)
isolate (source animal id): 64 | 8 (≈ 10.9 µM)
isolate (source animal id): 65 | 8 (≈ 10.9 µM)
isolate (source animal id): 66 | 16 (≈ 21.8 µM)
isolate (source animal id): 67 | 2 (≈ 2.72 µM)
isolate (source animal id): 68 | 4 (≈ 5.45 µM)
isolate (source animal id): 69 | 4 (≈ 5.45 µM)
isolate (source animal id): 70 | 4 (≈ 5.45 µM)
isolate (source animal id): 71 | 8 (≈ 10.9 µM)
isolate (source animal id): 72 | 4 (≈ 5.45 µM)
isolate (source animal id): 73 | 4 (≈ 5.45 µM)
isolate (source animal id): 74 | 4 (≈ 5.45 µM)
isolate (source animal id): 75 | 4 (≈ 5.45 µM)
isolate (source animal id): 76 | 8 (≈ 10.9 µM)
isolate (source animal id): 77 | 4 (≈ 5.45 µM)
isolate (source animal id): 78 | 8 (≈ 10.9 µM)
isolate (source animal id): 79 | 4 (≈ 5.45 µM)
isolate (source animal id): 80 | 4 (≈ 5.45 µM)
isolate (source animal id): 81 | 2 (≈ 2.72 µM)
isolate (source animal id): 82 | 4 (≈ 5.45 µM)
isolate (source animal id): 83 | 2 (≈ 2.72 µM)
isolate (source animal id): 84 | 4 (≈ 5.45 µM)
isolate (source animal id): 85 | 4 (≈ 5.45 µM)
isolate (source animal id): 86 | 4 (≈ 5.45 µM)
isolate (source animal id): 87 | 4 (≈ 5.45 µM)
isolate (source animal id): 88 | 4 (≈ 5.45 µM)
isolate (source animal id): 89 | 4 (≈ 5.45 µM)
isolate (source animal id): 90 | 4 (≈ 5.45 µM)
isolate (source animal id): 91 | 4 (≈ 5.45 µM)
isolate (source animal id): 92 | 4 (≈ 5.45 µM)
isolate (source animal id): 93 | 4 (≈ 5.45 µM)
isolate (source animal id): 94 | 2 (≈ 2.72 µM)
isolate (source animal id): 95 | 4 (≈ 5.45 µM)
isolate (source animal id): 96 | 4 (≈ 5.45 µM)
isolate (source animal id): 97 | 4 (≈ 5.45 µM)
isolate (source animal id): 189 | 4 (≈ 5.45 µM)
isolate (source animal id): 190 | 2 (≈ 2.72 µM)
isolate (source animal id): 191 | 4 (≈ 5.45 µM)
isolate (source animal id): 192 | 4 (≈ 5.45 µM)
isolate (source animal id): 193 | 4 (≈ 5.45 µM)
isolate (source animal id): 194 | 4 (≈ 5.45 µM)
isolate (source animal id): 195 | 4 (≈ 5.45 µM)
isolate (source animal id): 196 | 4 (≈ 5.45 µM)
isolate (source animal id): 197 | 4 (≈ 5.45 µM)
isolate (source animal id): 198 | 2 (≈ 2.72 µM)
isolate (source animal id): 199 | 4 (≈ 5.45 µM)
isolate (source animal id): 200 | 4 (≈ 5.45 µM)
isolate (source animal id): 201 | 4 (≈ 5.45 µM)
isolate (source animal id): 202 | 4 (≈ 5.45 µM)
isolate (source animal id): 203 | 8 (≈ 10.9 µM)
isolate (source animal id): 204 | 4 (≈ 5.45 µM)
isolate (source animal id): 205 | 8 (≈ 10.9 µM)
isolate (source animal id): 206 | 4 (≈ 5.45 µM)
isolate (source animal id): 207 | 4 (≈ 5.45 µM)
isolate (source animal id): 208 | 4 (≈ 5.45 µM)
isolate (source animal id): 209 | 8 (≈ 10.9 µM)
isolate (source animal id): 210 | 4 (≈ 5.45 µM)
isolate (source animal id): 211 | 4 (≈ 5.45 µM)
isolate (source animal id): 212 | 2 (≈ 2.72 µM)
isolate (source animal id): 213 | 8 (≈ 10.9 µM)
isolate (source animal id): 214 | 8 (≈ 10.9 µM)
isolate (source animal id): 215 | 4 (≈ 5.45 µM)
isolate (source animal id): 216 | 2 (≈ 2.72 µM)
isolate (source animal id): 217 | ≤ 1
isolate (source animal id): 218 | 4 (≈ 5.45 µM)
isolate (source animal id): 219 | 4 (≈ 5.45 µM)
isolate (source animal id): 220 | 4 (≈ 5.45 µM)
